Measured values taken from paper PMC6488192 (2019).
These are yes or no findings as the source states them, for the method shown. In cells and extracts the contact can be indirect. Binding can be weak; no strength is given.

Chains of the proteins cited; added tags and fusions are not shown. Residues count along the entry.
UniProt Q581T1, residues 31-2167: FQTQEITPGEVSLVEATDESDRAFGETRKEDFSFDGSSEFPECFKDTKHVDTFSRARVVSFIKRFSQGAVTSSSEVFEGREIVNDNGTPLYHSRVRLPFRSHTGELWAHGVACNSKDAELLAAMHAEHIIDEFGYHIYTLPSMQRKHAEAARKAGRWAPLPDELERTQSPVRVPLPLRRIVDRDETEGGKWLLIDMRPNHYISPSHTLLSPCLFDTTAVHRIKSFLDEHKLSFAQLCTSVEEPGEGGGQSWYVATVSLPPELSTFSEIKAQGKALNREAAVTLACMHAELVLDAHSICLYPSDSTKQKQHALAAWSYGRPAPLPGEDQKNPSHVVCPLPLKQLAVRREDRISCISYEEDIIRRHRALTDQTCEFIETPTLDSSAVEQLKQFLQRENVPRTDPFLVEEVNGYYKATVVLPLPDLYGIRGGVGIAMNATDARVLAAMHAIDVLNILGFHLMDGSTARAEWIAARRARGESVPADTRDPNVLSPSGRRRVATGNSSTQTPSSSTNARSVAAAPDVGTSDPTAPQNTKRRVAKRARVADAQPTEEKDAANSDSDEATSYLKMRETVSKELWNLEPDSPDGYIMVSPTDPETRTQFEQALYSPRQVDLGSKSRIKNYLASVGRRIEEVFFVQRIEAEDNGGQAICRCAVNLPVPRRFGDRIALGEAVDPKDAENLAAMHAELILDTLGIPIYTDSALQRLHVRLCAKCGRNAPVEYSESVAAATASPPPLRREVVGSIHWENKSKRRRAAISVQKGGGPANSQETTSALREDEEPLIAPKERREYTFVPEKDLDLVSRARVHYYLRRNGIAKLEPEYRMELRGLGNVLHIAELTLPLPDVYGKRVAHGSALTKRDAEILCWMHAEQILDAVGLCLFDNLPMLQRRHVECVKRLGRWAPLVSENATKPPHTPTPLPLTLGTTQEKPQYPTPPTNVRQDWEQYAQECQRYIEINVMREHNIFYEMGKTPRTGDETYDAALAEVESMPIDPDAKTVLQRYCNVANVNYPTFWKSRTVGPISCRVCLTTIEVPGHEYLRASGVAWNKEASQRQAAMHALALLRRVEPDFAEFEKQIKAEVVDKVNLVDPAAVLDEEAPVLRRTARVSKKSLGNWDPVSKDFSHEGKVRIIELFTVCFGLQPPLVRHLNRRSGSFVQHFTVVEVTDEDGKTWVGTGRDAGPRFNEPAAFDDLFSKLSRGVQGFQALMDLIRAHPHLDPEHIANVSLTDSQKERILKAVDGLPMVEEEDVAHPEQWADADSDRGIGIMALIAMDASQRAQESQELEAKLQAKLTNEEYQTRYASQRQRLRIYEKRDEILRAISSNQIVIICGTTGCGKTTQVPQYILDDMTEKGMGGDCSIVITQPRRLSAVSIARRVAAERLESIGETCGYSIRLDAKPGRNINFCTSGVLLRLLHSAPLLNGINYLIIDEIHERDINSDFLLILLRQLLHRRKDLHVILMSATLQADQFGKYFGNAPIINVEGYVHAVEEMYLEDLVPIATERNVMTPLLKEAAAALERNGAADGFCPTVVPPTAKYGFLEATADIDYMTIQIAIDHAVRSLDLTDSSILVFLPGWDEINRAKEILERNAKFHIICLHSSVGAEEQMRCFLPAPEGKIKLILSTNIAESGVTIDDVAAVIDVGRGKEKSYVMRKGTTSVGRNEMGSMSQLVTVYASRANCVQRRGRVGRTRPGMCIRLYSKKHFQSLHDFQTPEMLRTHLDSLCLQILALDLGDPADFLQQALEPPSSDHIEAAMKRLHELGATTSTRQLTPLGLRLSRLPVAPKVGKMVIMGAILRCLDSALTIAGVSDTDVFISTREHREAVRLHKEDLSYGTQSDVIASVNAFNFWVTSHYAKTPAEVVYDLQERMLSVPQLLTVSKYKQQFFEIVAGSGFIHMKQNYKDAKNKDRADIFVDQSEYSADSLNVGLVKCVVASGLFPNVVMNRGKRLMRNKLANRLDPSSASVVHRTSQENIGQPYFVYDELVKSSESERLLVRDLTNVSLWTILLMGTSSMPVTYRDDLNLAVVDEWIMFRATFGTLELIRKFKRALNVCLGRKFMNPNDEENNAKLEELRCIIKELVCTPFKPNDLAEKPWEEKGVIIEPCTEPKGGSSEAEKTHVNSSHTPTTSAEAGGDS

What was measured:
Assay in all cases: pull-down; TAP-tagged bait recovered on Dynabeads IgG from whole-cell or mitochondria-enriched T. brucei extract (~2 mg protein, with RNase inhibitor); washes 150 mM NaCl, 1 mM EDTA, 10 mM MgOAc, 0.1% NP-40, 25 mM Tris pH 8.0; endogenous partners by Western blot, REL1 by radiolabelled self-adenylation; mutants normalised to WT
[1] = biological target: ^H2F1 Znf1 R/K>A with TAP tag (T. brucei) (UniProt Q585P3)
[2] = biological target: ^H2F1 Znf2 R/K>A with TAP tag (T. brucei) (UniProt Q585P3)
[3] = biological target: ^H2F1 Znf3 R/K>A with TAP tag (T. brucei) (UniProt Q585P3)
[4] = biological target: ^H2F1 Znf4 R/K>A with TAP tag (T. brucei) (UniProt Q585P3)
[5] = biological target: ^H2F1 Znf5 C2>A2 with TAP tag (T. brucei) (UniProt Q585P3)
[6] = biological target: ^H2F1 Znf5 R/K>A with TAP tag (T. brucei) (UniProt Q585P3)

Measured: binding

RNA Editing Helicase 2 (REH2), endogenous (from UniProt Q581T1 31-2167) (enzyme)
binds: all assays above
